According to PMC5609771:
Results are given in words; binding and its absence hold for the method and conditions named. In cells and extracts the contact can be indirect. Some entries that bind do so weakly or less than the wild type.

Protein sequences, listed by entry. Tags and fused reporters are not part of them.
UniProt P17676: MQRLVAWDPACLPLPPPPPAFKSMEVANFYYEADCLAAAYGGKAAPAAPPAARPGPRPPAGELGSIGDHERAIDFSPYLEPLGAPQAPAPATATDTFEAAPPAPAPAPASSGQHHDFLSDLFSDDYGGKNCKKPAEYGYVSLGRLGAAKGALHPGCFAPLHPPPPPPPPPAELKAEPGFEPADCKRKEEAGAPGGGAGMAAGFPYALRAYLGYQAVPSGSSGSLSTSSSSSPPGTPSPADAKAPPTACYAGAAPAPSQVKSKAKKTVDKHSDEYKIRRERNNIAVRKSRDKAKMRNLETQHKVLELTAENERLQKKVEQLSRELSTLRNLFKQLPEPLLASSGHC
UniProt P05412: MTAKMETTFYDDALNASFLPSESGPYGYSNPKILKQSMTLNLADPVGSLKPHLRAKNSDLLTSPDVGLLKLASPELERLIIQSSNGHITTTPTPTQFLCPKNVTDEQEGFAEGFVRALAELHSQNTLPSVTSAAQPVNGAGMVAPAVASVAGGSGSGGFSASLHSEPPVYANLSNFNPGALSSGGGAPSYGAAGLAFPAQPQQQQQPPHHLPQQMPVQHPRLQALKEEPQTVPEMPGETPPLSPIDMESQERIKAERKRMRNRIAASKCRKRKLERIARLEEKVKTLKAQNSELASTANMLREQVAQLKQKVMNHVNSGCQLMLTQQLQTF

Key:
[1] = biological target: CCAAT/enhancer binding protein β (human) (UniProt P17676); assay: co-IP; ex vitro mixture of two HNPE lysates, one with overexpressed c-Jun and one with overexpressed C/EBPβ; precipitated with mouse anti-C/EBPβ; blot with rabbit anti-c-Jun
[2] = biological target: CCAAT/enhancer binding protein β (human) (UniProt P17676); assay: co-IP; lysate of transfected HNPE cells (500 μg protein, hypotonic buffer 20 mM Tris pH 7.4, 10 mM EDTA); precipitated with mouse monoclonal anti-C/EBPβ at 4°C overnight and Protein A/G magnetic beads; blot with rabbit anti-c-Jun

Q: Which binding [1] does the source give for c-Jun (from UniProt P05412 1-331) here?
A: Its binding is “binds”.

Q: And the binding [2]?
A: The binding was “binds”.

Q: For “c-Jun (endogenous) (from UniProt P05412 1-331)”, which binding [2] is on record?
A: The binding was “binds”.
